Experimental data from the supplement of paper PMC8728848.
The list shows a part of the results.

Experiments:
Test in all cases: glycan array binding signal (z-score within array); higher = stronger binding
Conditions in all cases: glycan notation: IUPAC condensed, linker removed
[1] = target: Gal3S(b1-3)[Fuc(a1-4)]GlcNAc
Outline: (§1)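 Arrays were curated from the Consortium for Functional Glycomics database, 3228 in total, and kept only where the protein sequence was available. Binding is expressed as a within-array Z-score. This score was averaged across arrays of the same protein sequence at different concentrations or buffers and across linkers, and negative values can be read as non-binding.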

Gal3S(b1-4)Glc = target: Gal3S(b1-4)Glc
Outline: as §1

Gal3S(b1-4)Glc6S = target: Gal3S(b1-4)Glc6S
Outline: as §1

Gal3S(b1-4)GlcNAc = target: Gal3S(b1-4)GlcNAc
Outline: as §1

[2] = target: Gal3S(b1-4)[Fuc(a1-3)]Glc6S
Outline: as §1

[3] = target: Gal3S(b1-4)[Fuc(a1-3)]GlcNAc
Outline: as §1

[4] = target: Gal3S(b1-4)[Fuc(a1-3)]GlcNAc6S
Outline: as §1

Gal3S4S(b1-4)GlcNAc = target: Gal3S4S(b1-4)GlcNAc
Outline: as §1

Gal3S6S(b1-4)GlcNAc = target: Gal3S6S(b1-4)GlcNAc
Outline: as §1

Gal3S6S(b1-4)GlcNAc6S = target: Gal3S6S(b1-4)GlcNAc6S
Outline: as §1

Gal4S(b1-4)GlcNAc = target: Gal4S(b1-4)GlcNAc
Outline: as §1

Gal4S6S(b1-4)GlcNAc = target: Gal4S6S(b1-4)GlcNAc
Outline: as §1

Gal6P(b1-4)GlcNAc = target: Gal6P(b1-4)GlcNAc
Outline: as §1

Gal6S(b1-3)GlcNAc = target: Gal6S(b1-3)GlcNAc
Outline: as §1

Gal6S(b1-3)GlcNAc6S = target: Gal6S(b1-3)GlcNAc6S
Outline: as §1

Gal6S(b1-4)Glc = target: Gal6S(b1-4)Glc
Outline: as §1

Gal6S(b1-4)Glc6S = target: Gal6S(b1-4)Glc6S
Outline: as §1

Gal6S(b1-4)GlcNAc = target: Gal6S(b1-4)GlcNAc
Outline: as §1

Gal6S(b1-4)GlcNAc6S = target: Gal6S(b1-4)GlcNAc6S
Outline: as §1

GalNAc(a1-3)Gal = target: GalNAc(a1-3)Gal
Outline: as §1

GalNAc(a1-3)GalNAc = target: GalNAc(a1-3)GalNAc
Outline: as §1

[5] = target: GalNAc(a1-3)GalNAc(b1-3)Gal(a1-4)Gal(b1-4)Glc
Outline: as §1

[6] = target: GalNAc(a1-3)GalNAc(b1-3)Gal(a1-4)Gal(b1-4)GlcNAc
Outline: as §1

GalNAc(b1-3)Gal = target: GalNAc(b1-3)Gal
Outline: as §1

[7] = target: GalNAc(b1-3)Gal(a1-4)Gal(b1-4)GlcNAc
Outline: as §1

[8] = target: GalNAc(b1-3)Gal(a1-4)Gal(b1-4)GlcNAc(b1-3)Gal(b1-4)Glc
Outline: as §1

[9] = target: GalNAc(b1-3)Gal(a1-6)Gal(b1-4)Glc
Outline: as §1

GalNAc(b1-3)GalNAc = target: GalNAc(b1-3)GalNAc
Outline: as §1

GalNAc(b1-3)GlcNAc = target: GalNAc(b1-3)GlcNAc
Outline: as §1

GalNAc(b1-4)Gal(b1-4)Glc = target: GalNAc(b1-4)Gal(b1-4)Glc
Outline: as §1

GalNAc(b1-4)GlcNAc = target: GalNAc(b1-4)GlcNAc
Outline: as §1

[10] = target: GalNAc(b1-4)GlcNAc(b1-2)Man
Outline: as §1

[11] = target: GalNAc(b1-4)GlcNAc(b1-2)Man(a1-3)[GalNAc(b1-4)GlcNAc(b1-2)Man(a1-6)]Man(b1-4)GlcNAc(b1-4)GlcNAc
Outline: as §1

[12] = target: GalNAc(b1-4)GlcNAc(b1-3)GalNAc(b1-4)GlcNAc
Outline: as §1

GalNAc(b1-4)GlcNAc6S = target: GalNAc(b1-4)GlcNAc6S
Outline: as §1

GalNAc(b1-6)GalNAc = target: GalNAc(b1-6)GalNAc
Outline: as §1

GalNAc3S(b1-4)GlcNAc = target: GalNAc3S(b1-4)GlcNAc
Outline: as §1

GalNAc3S(b1-4)GlcNAc3S = target: GalNAc3S(b1-4)GlcNAc3S
Outline: as §1

[13] = target: GalNAc3S(b1-4)[Fuc(a1-3)]GlcNAc
Outline: as §1

GalNAc4S6S(b1-4)GlcNAc = target: GalNAc4S6S(b1-4)GlcNAc
Outline: as §1

GalNAc6S(b1-4)GlcNAc = target: GalNAc6S(b1-4)GlcNAc
Outline: as §1

Glc(a1-4)Glc = target: Glc(a1-4)Glc
Outline: as §1

[14] = target: Glc(a1-4)Glc(a1-4)Glc(a1-4)Glc
Outline: as §1

Glc(a1-6)Glc(a1-6)Glc = target: Glc(a1-6)Glc(a1-6)Glc
Outline: as §1

[15] = target: Glc(a1-6)Glc(a1-6)Glc(a1-6)Glc
Outline: as §1

B1: MUB70 (Lactobacillus reuteri) (protein)
chain: CVHVQYIDGETDQMLRQDDLDGYTDETIPYSTAEGIKKFEGDGYELFKDNFPAGEKFDNDDTNDQFYTVIF
glycan array binding signal (z-score) [1]: -0.325
glycan array binding signal (z-score) (Gal3S(b1-4)Glc): -0.177
glycan array binding signal (z-score) (Gal3S(b1-4)Glc6S): -0.889
glycan array binding signal (z-score) (Gal3S(b1-4)GlcNAc): 0.245
glycan array binding signal (z-score) [2]: -0.656
glycan array binding signal (z-score) [3]: 0.074
glycan array binding signal (z-score) [4]: 0.698
glycan array binding signal (z-score) (Gal3S4S(b1-4)GlcNAc): -0.523
glycan array binding signal (z-score) (Gal3S6S(b1-4)GlcNAc): -0.511
glycan array binding signal (z-score) (Gal3S6S(b1-4)GlcNAc6S): 3.78
glycan array binding signal (z-score) (Gal4S(b1-4)GlcNAc): -0.859
glycan array binding signal (z-score) (Gal4S6S(b1-4)GlcNAc): 1.99
glycan array binding signal (z-score) (Gal6P(b1-4)GlcNAc): -0.401
glycan array binding signal (z-score) (Gal6S(b1-3)GlcNAc): -0.69
glycan array binding signal (z-score) (Gal6S(b1-3)GlcNAc6S): 4.49
glycan array binding signal (z-score) (Gal6S(b1-4)Glc): -0.45
glycan array binding signal (z-score) (Gal6S(b1-4)Glc6S): -0.439
glycan array binding signal (z-score) (Gal6S(b1-4)GlcNAc): -0.054
glycan array binding signal (z-score) (Gal6S(b1-4)GlcNAc6S): -0.436
glycan array binding signal (z-score) (GalNAc(a1-3)Gal): -0.57
glycan array binding signal (z-score) (GalNAc(a1-3)GalNAc): -0.291
glycan array binding signal (z-score) [5]: -0.132
glycan array binding signal (z-score) [6]: 0.279
glycan array binding signal (z-score) (GalNAc(b1-3)Gal): 0.027
glycan array binding signal (z-score) [7]: 0.58
glycan array binding signal (z-score) [8]: 0.493
glycan array binding signal (z-score) [9]: -0.028
glycan array binding signal (z-score) (GalNAc(b1-3)GalNAc): -0.426
glycan array binding signal (z-score) (GalNAc(b1-3)GlcNAc): -0.051
glycan array binding signal (z-score) (GalNAc(b1-4)Gal(b1-4)Glc): -0.303
glycan array binding signal (z-score) (GalNAc(b1-4)GlcNAc): -0.297
glycan array binding signal (z-score) [10]: -0.418
glycan array binding signal (z-score) [11]: 1.12
glycan array binding signal (z-score) [12]: 0.743
glycan array binding signal (z-score) (GalNAc(b1-4)GlcNAc6S): 0.276
glycan array binding signal (z-score) (GalNAc(b1-6)GalNAc): -0.531
glycan array binding signal (z-score) (GalNAc3S(b1-4)GlcNAc): -0.259
glycan array binding signal (z-score) (GalNAc3S(b1-4)GlcNAc3S): -0.012
glycan array binding signal (z-score) [13]: -0.183
glycan array binding signal (z-score) (GalNAc4S6S(b1-4)GlcNAc): 0.329
glycan array binding signal (z-score) (GalNAc6S(b1-4)GlcNAc): -0.027
glycan array binding signal (z-score) (Glc(a1-4)Glc): -0.223
glycan array binding signal (z-score) [14]: 0.215
glycan array binding signal (z-score) (Glc(a1-6)Glc(a1-6)Glc): -0.59
glycan array binding signal (z-score) [15]: -0.181
